Assay results published in paper PMC5472792, “Bub1 positions Mad1 close to KNL1 MELT repeats to promote checkpoint signalling” (Nature Communications, 2017).
These are yes or no findings as the source states them, for the method shown. For some of these results: In cells and extracts the contact can be indirect. Some binding calls cover weakened binding; strength is not graded here. Sequences can lack the tags named with a protein.

Chains of the proteins cited; added tags and fusions are not shown.
UniProt O43684: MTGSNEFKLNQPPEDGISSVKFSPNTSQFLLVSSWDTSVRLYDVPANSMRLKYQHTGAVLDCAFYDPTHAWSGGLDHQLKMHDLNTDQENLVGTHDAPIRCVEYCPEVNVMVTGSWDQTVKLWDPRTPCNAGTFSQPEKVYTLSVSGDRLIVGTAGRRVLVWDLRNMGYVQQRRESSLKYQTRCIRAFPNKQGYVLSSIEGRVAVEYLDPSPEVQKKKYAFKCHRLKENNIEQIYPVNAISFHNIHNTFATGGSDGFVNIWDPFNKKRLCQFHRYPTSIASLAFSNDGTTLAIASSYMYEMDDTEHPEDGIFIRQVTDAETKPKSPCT

What was measured:
[1] = biological target: T1, FLAG-Bub1 146–553 ΔCD1 (human) (UniProt O43683); assay: co-IP; anti-FLAG beads on lysate of HEK293 cells co-transfected with FLAG Bub1 146–553 and untagged Bub3; 350 mM NaCl, 50 mM Tris pH 8.0, 0.05% NP40; eluted with FLAG peptide
T1 sequence: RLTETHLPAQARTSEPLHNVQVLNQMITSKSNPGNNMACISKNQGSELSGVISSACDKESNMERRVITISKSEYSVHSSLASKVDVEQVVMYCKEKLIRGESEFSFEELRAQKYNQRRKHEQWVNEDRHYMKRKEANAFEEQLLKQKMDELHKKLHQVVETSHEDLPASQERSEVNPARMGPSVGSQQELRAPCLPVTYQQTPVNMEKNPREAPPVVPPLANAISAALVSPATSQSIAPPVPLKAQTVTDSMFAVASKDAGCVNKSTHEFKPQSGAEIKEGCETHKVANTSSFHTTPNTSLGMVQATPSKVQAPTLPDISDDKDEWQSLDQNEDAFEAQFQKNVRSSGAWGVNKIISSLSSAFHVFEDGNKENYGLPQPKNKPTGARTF

[2] = biological target: T2, FLAG-Bub1 146–553 (human) (UniProt O43683); assay: as above
T2 sequence: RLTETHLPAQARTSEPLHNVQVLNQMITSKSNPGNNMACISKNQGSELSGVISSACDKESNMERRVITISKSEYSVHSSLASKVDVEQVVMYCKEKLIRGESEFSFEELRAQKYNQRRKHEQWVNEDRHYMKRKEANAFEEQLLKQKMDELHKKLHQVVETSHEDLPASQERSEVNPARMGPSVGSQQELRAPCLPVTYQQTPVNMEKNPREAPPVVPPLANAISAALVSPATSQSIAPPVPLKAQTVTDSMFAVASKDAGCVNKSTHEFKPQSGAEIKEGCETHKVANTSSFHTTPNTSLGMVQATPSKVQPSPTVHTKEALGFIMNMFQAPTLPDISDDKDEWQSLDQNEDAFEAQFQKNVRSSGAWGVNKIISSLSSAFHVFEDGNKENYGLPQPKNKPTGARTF

[3] = biological target: T3, His-Strep-Mad1 597–718 (human) (UniProt Q9Y6D9); assay: pull-down; 8 μg His-Strep-Mad1 597–718 incubated with 1 μg FLAG-Bub1 146–553/Bub3 complexes, 30 mM Tris pH 7.4, 50 mM NaCl, 0.1 mM DTT, 30 min at 30 °C; captured on Strep-Tactin beads, washed with 120 mM NaCl, 0.1% NP-40, eluted with desthiobiotin; blot for FLAG; both purified
T3 sequence: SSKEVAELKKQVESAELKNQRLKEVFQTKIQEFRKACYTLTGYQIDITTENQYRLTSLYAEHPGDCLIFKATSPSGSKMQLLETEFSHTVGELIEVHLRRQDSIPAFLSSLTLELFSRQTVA

[4] = biological target: T4, control CD1 peptide with mutations of residues 461–465 to Ala (human) (UniProt O43683); assay: SPR; N-terminally biotinylated Bub1 peptides captured (~50 RU) on a streptavidin-coated CM5 chip, Mad1 proteins injected; Biacore T200, 25 °C; 25 mM Tris pH 7.8, 150 mM NaCl, 10 mM MgCl2, 0.25 M TCEP, 0.005% Surfactant P-20; steady-state affinity model; both purified
T4 sequence (peptide, biotin on the N-terminus; norleucine (Nle) instead of methionine): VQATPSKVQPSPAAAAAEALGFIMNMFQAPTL

## Bub3 (from UniProt O43684 1-328)
[1]
  binding: binds
[2]
  binding: binds

## FLAG-Bub1 146–553ΔCD1/Bub3 complex (from UniProt O43683 146-553; O43684 1-328)
[3]
  binding: no binding

B1: His-Strep-Mad1 597–718 (domain or fragment, human, UniProt Q9Y6D9 597-718, looked up)
chain: T3 sequence
notes: composition confirmed by multi-angle light scattering; also called Mad1 C-terminal fragment; source: E. coli BL21(DE3), purified (HiTrap Ni column, Superdex 75)
[4]
  binding: no binding (tested: 500 μM)
